No constants are given. Whether binding was seen depends on the method and setting. For part of these data: Binding seen in cells or lysates may run through a third protein. Some entries that bind do so weakly or less than the wild type. For part of these data: Tags and fused reporters may be left off the sequences shown.
T1: Cdh1-ΔN200 (S. cerevisiae) (UniProt P53197)
T1 sequence: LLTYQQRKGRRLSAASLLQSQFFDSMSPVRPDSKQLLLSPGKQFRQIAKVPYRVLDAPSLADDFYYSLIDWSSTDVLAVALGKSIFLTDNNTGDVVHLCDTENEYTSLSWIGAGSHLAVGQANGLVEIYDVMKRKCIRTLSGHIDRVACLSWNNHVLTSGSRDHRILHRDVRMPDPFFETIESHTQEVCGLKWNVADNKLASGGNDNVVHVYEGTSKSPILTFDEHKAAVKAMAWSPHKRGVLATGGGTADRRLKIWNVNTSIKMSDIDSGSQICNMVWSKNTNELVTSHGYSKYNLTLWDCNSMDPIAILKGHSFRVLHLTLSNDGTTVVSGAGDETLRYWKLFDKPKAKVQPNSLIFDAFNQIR

Amino acid sequences for entries named in this document (tags omitted). Residues count along the entry.
UniProt P34244, residues 667-872: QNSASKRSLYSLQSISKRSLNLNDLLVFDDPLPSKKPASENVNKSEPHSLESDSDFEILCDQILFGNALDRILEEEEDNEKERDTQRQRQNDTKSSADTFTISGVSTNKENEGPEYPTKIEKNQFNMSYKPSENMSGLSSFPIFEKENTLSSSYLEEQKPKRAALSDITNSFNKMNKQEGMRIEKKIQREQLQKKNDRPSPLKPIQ

T2: 6xHis-Cdh1 (S. cerevisiae) (UniProt P53197)
T2 sequence: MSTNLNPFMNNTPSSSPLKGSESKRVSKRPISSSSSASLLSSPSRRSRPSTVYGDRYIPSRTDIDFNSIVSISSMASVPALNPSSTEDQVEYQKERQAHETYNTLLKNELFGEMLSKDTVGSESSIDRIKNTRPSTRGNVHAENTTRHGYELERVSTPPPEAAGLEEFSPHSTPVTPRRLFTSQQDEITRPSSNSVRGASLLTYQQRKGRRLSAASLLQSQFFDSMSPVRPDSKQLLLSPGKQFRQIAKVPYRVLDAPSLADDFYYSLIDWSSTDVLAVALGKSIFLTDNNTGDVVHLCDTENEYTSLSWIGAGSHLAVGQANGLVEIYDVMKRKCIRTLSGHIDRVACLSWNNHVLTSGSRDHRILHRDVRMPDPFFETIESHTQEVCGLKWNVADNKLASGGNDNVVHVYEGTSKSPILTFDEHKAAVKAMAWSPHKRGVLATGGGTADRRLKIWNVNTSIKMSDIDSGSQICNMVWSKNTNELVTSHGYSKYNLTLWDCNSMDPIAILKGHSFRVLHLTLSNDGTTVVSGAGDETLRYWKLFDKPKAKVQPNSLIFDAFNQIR


Legend:
[1] = target: T1, Cdh1-ΔN200 (S. cerevisiae); assay: two-hybrid; pJ69-4a strains with bait plasmids mated with pJ69-4α strains with activation domain plasmids; diploids struck onto plates lacking leucine, tryptophan, histidine and adenine; growth indicates interaction
[2] = target: T1, Cdh1-ΔN200 (S. cerevisiae); assay: two-hybrid; data not shown; D-box mutants of Ybr138C with Cdh1
[3] = target: T2, 6xHis-Cdh1 (S. cerevisiae); assay: pull-down; 6xHis-Cdh1 on Talon beads or control beads incubated with yeast cell extracts holding TAP-tagged proteins; bound proteins detected with PAP antibodies; only the target purified

Molecule	binding [2]	binding [3]	further results
Hsl1 667-872 (from UniProt P34244 667-872) (domain or fragment)			binding [1]: binds
Ybr138C-3xmdb (two-hybrid prey) (protein, UniProt P38277 1-524) MEKDQIQPRVLESVDTNSLSLLSSNTSSNMNSNTNNKLSIIASDISTGSVLSRPLTPPVVQDIENNSMLQWQFEKKEFIFDSNSTPSKQAKPLQRNSPYQGNSQSENQNQQLLNVRKRRSQLIGAKPKIPSKLYQSVSKLDLIDDKSFTSLPIAPPCNIETNEDDSGNNEYNNNKKAPRANPVNELRVHNNKRNRYVSYGPSLDTKNYELTENTSQDIPPLVLVEDYIPYTQSKSTKKMVSISDLKSKLSKRRDNHIPLRVKNSYSEINKETNRNSFEPNSLTLIPHILRNTEENRDESNNPLDFIKEEIEISDISIPNSIENMVVNLVNIPSSNKSYDDLYLSELNVHSQLRKCVICEKALYEISSRLLNSGYYKEIVCEQCTVRYEEAAKIFENCEFESSMDESNLSSGTFSDLENSAEPFHLSTDVPKKINRHIEDNKIDLKKEISKKKDSFSKELIEALQAQLLENDKSIKHHFNKDAMGSKSMNWFLEAARKAKWKWRINGLLPHFLRNQNSDRLNFQP	binds		
Ybr138C with the putative D-box 177RPRL mutated (protein, UniProt P38277 1-524) MEKDQIQPRVLESVDTNSLSLLSSNTSSNMNSNTNNKLSIIASDISTGSVLSRPLTPPVVQDIENNSMLQWQFEKKEFIFDSNSTPSKQAKPLQRNSPYQGNSQSENQNQQLLNVRKRRSQLIGAKPKIPSKLYQSVSKLDLIDDKSFTSLPIAPPCNIETNEDDSGNNEYNNNKKAPRANPVNELRVHNNKRNRYVSYGPSLDTKNYELTENTSQDIPPLVLVEDYIPYTQSKSTKKMVSISDLKSKLSKRRDNHIPLRVKNSYSEINKETNRNSFEPNSLTLIPHILRNTEENRDESNNPLDFIKEEIEISDISIPNSIENMVVNLVNIPSSNKSYDDLYLSELNVHSQLRKCVICEKALYEISSRLLNSGYYKEIVCEQCTVRYEEAAKIFENCEFESSMDESNLSSGTFSDLENSAEPFHLSTDVPKKINRHIEDNKIDLKKEISKKKDSFSKELIERLQLQLLENDKSIKHHFNKDAMGSKSMNWFLEARRKLKWKWRINGLLPHFLRNQNSDRLNFQP	binds		

Continued, in another order:

binding [2]	binding [3]	Molecule	further results
binds		Ybr138C with the putative D-box 495RRKL mutated (protein, UniProt P38277 1-524) MEKDQIQPRVLESVDTNSLSLLSSNTSSNMNSNTNNKLSIIASDISTGSVLSRPLTPPVVQDIENNSMLQWQFEKKEFIFDSNSTPSKQAKPLQRNSPYQGNSQSENQNQQLLNVRKRRSQLIGAKPKIPSKLYQSVSKLDLIDDKSFTSLPIAPPCNIETNEDDSGNNEYNNNKKRPRLNPVNELRVHNNKRNRYVSYGPSLDTKNYELTENTSQDIPPLVLVEDYIPYTQSKSTKKMVSISDLKSKLSKRRDNHIPLRVKNSYSEINKETNRNSFEPNSLTLIPHILRNTEENRDESNNPLDFIKEEIEISDISIPNSIENMVVNLVNIPSSNKSYDDLYLSELNVHSQLRKCVICEKALYEISSRLLNSGYYKEIVCEQCTVRYEEAAKIFENCEFESSMDESNLSSGTFSDLENSAEPFHLSTDVPKKINRHIEDNKIDLKKEISKKKDSFSKELIERLQLQLLENDKSIKHHFNKDAMGSKSMNWFLEAARKAKWKWRINGLLPHFLRNQNSDRLNFQP	
	binds	Ybr138C-TAP (protein, UniProt P38277 1-524) MEKDQIQPRVLESVDTNSLSLLSSNTSSNMNSNTNNKLSIIASDISTGSVLSRPLTPPVVQDIENNSMLQWQFEKKEFIFDSNSTPSKQAKPLQRNSPYQGNSQSENQNQQLLNVRKRRSQLIGAKPKIPSKLYQSVSKLDLIDDKSFTSLPIAPPCNIETNEDDSGNNEYNNNKKRPRLNPVNELRVHNNKRNRYVSYGPSLDTKNYELTENTSQDIPPLVLVEDYIPYTQSKSTKKMVSISDLKSKLSKRRDNHIPLRVKNSYSEINKETNRNSFEPNSLTLIPHILRNTEENRDESNNPLDFIKEEIEISDISIPNSIENMVVNLVNIPSSNKSYDDLYLSELNVHSQLRKCVICEKALYEISSRLLNSGYYKEIVCEQCTVRYEEAAKIFENCEFESSMDESNLSSGTFSDLENSAEPFHLSTDVPKKINRHIEDNKIDLKKEISKKKDSFSKELIERLQLQLLENDKSIKHHFNKDAMGSKSMNWFLEARRKLKWKWRINGLLPHFLRNQNSDRLNFQP	
	binds	Mps1-TAP (enzyme, UniProt P54199 1-764) MSTNSFHDYVDLKSRTNTRQFSDDEEFTTPPKLSNFGSALLSHTEKTSASEILSSHNNDKIANRLEEMDRSSSRSHPPPSMGNLTSGHTSTSSHSTLFGRYLRNNHQTSMTTMNTSDIEINVGNSLDKSFERIRNLRQNMKEDITAKYAERRSKRFLISNRTTKLGPAKRAMTLTNIFDEDVPNSPNQPINARETVELPLEDSHQTNFKETKRNTDYDSIDFGDLNPIQYIKKHNLPTSDLPLISQIYFDKQREENRQAALRKHSSRELLYKSRSSSSSLSSNNLLANKDNSITSNNGSQPRRKVSTGSSSSKSSIEIRRALKENIDTSNNSNFNSPIHKIYKGISRNKDSDSEKREVLRNISINANHADNLLQQENKRLKRSLDDAITNENINSKNLEVFYHRPAPKPPVTKKVEIVEPAKSASLSNNRNIITVNDSQYEKIELLGRGGSSRVYKVKGSGNRVYALKRVSFDAFDDSSIDGFKGEIELLEKLKDQKRVIQLLDYEMGDGLLYLIMECGDHDLSQILNQRSGMPLDFNFVRFYTKEMLLCIKVVHDAGIVHSDLKPANFVLVKGILKIIDFGIANAVPEHTVNIYRETQIGTPNYMAPEALVAMNYTQNSENQHEGNKWKVGRPSDMWSCGCIIYQMIYGKPPYGSFQGQNRLLAIMNPDVKIPFPEHTSNNEKIPKSAIELMKACLYRNPDKRWTVDKVLSSTFLQPFMISGSIMEDLIRNAVRYGSEKPHISQDDLNDVVDTVLRKFADYKI	

From PMC3458821
